In the supplement of paper PMC10338343:
± gives the standard deviation. The list shows a part of the results, in another mix than the full data. Many of these values have a large error.

Tested on: MILI (PIWIL2) piRISC loaded with L1MC piRNA (26 nt)
Experiment: pre-steady-state target cleavage rate (min^-1); MIWI and MILI are mouse PIWI proteins and EfPiwi is from a freshwater sponge; tags in brackets are library labels; higher = faster piRNA-guided slicing of the target
Conditions: guide: L1MC piRNA 5'p-UAACUAAAUACUAUGCAAGCUGUAGG; auxiliary factor: 500 nM mouse GTSF1
Procedure: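 Cleave-'n-Seq: a library of target RNAs (target site embedded in constant flanks, ACAGCATTCCGCGTTAGTGATATCCG... 5' flank; DNA-blocked outside the site) at 0.1 nM was incubated with 1 nM active mouse MILI or MIWI piRISC (synthetic 5'-monophosphorylated piRNA guide) with or without 500 nM mouse GTSF1 at 33 °C for 1 min to 16 h. Uncleaved targets were sequenced and normalised to non-target controls, and the pooled three trials were fitted to a burst-and-steady-state model to give the pre-steady-state cleavage rate (min^-1; k3 is constrained to at most 1e-4). Sequence is the target site only; target names encode pairing extent (gX:gY) and contiguous / 1-mismatch / 2-mismatch / bulge geometry. Fits with R² ≤ 0 are excluded.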

Sequence | pre-steady-state target cleavage rate
UCCUGGAUGUGCUUGCAAUGUAUUUAGAAA | 0.00228 ± 0.0049
UCCUGGAUGUCGAUGCAUAGUAUUUAGUUC [g2:g17:cont:t1C] | 0.0657 ± 0.0091
UCCUGGAUCACGAUGCAUAGUAUUUAGUAA | 0.173 ± 0.016
UCCUGGAAACAGCUUGCAUAGUAUUUAGUUA | 0.347 ± 0.019
UCCUGGAUCAGCUUGCAUAGUUUUUAGAAA | 0.0202 ± 0.0088
UCCUGGAUGUCGAACCAUAGUAUUUAGUAA | 0.00131 ± 0.0058
UCCUCCUAGUGCUUGCAUAGUAUUUUCAAA | 0.0158 ± 0.0057
UCCUCCUACAGCUUGCAAACUAUUUAGUUA | 0.0393 ± 0.0078
UCCUCCUACAGCUUGCAUAAUAUUUAGUUA | 0.292 ± 0.026
UCCUGGAUGAGCAAGCAUAGUAUUUAGUAA | 0.123 ± 0.018
UCCUGGUACAGCUUGCAGUAGUAUUUAGUUA | 0.00495 ± 0.0037
UCCUGGAUGAGCUUGCAUACUUUUUAGUUA | 0.00156 ± 0.0067
UCCUGCUACAGCUUGCAUAGUUUUUUGUUA | 0.112 ± 0.028
UCCUGGAUGUCGAAGCCUAGUAUUUAGUUA | 0.00214 ± 0.0026
UCCUGGAACAGCUUGCAUAGAUUUUAGUAA | 0.0259 ± 0.0091

Same assay, conditions: guide: L1MC piRNA 5'p-UAACUAAAUACUAUGCAAGCUGUAGG; auxiliary factor: none (no GTSF1)

Sequence | pre-steady-state target cleavage rate
UCCUGGAUGUGCUUGCAAUGUAUUUAGAAA | 0.00119 ± 0.0058
UCCUGGAUGUCGAUGCAUAGUAUUUAGUUC [g2:g17:cont:t1C] | 0.00831 ± 0.0023
UCCUGGAUCACGAUGCAUAGUAUUUAGUAA | 0.00263 ± 0.0032
UCCUGGAAACAGCUUGCAUAGUAUUUAGUUA | 0.0105 ± 0.0038
UCCUGGAUGUCCUUGCACUAGUAUUUAGUUA | 0.000608 ± 0.0083
UCCUGCUACAGCUUGCAUAGUUAUUUCAAA | 0.000728 ± 0.0078
UCCUGGAUCAGCUUGCAUAGUUUUUAGAAA | 0.00104 ± 0.0052
UCCUGGAUGUCGAAGCUUAGUAUUUAGUAA | 0.000203 ± 0.024
UCCUGGUACAGCUUGCAUACAUUUUAGUAA | 0.00208 ± 0.0056
UCCUCCUAGUGCUUGCAUAGUAUUUUCAAA | 0.00108 ± 0.0043
UCCUGCUACAGCUUGCAUAGUAUUAUCAAA | 0.0015 ± 0.0029
UCCUCCUACAGCUUGCAAACUAUUUAGUUA | 0.00226 ± 0.0033
UCCUGCUACAGCUAGCAUAGUAUUUUCAAA | 0.000623 ± 0.01
UCCUGGAUGAGCAAGCAUAGUAUUUAGUAA | 0.00443 ± 0.0027
UCCUGGUACAGCUUGCAGUAGUAUUUAGUUA | 0.00173 ± 0.0055
UCCUGGAACAGCUUGCAAACUAUUUAGUUA | 0.00144 ± 0.0043
UCCUGGAUGAGCUUGCAUACUUUUUAGUUA | 0.00199 ± 0.0035
UCCUGCUACAGCUUGCAUAGUUUUUUGUUA | 0.00213 ± 0.003
UCCUGGAUGUCGAACGUUUCAAUUUAGUUA | 0.00013 ± 0.031
UCCUGGAUGUCGAAGCCUAGUAUUUAGUUA | 0.000905 ± 0.0049
UCCUGGUACAGCUUGCAUUCUAUUUAGUAA | 0.00115 ± 0.009
UCCUGGUACAGCUUGGUUAGUAUUUACAAA | 0.00152 ± 0.0045
UCCUGCUAGUGCUUGCAUAGUAUUUUCAAA | 0.000562 ± 0.0071
UCCUGGAACAGCUUGCAUAGAUUUUAGUAA | 0.00135 ± 0.0034
UCCUGGUACAGCUUGCAUAGUAUUAACAAA | 0.00206 ± 0.0033
